Reference: the supplement of paper PMC10849652
The list shows a part of the results.

Sequences of proteins named here, by UniProt entry; tags and fusion partners are left off. A change or cut given only in a name is not applied to a line headed by its entry.
UniProt P51532, whole entry, looked up: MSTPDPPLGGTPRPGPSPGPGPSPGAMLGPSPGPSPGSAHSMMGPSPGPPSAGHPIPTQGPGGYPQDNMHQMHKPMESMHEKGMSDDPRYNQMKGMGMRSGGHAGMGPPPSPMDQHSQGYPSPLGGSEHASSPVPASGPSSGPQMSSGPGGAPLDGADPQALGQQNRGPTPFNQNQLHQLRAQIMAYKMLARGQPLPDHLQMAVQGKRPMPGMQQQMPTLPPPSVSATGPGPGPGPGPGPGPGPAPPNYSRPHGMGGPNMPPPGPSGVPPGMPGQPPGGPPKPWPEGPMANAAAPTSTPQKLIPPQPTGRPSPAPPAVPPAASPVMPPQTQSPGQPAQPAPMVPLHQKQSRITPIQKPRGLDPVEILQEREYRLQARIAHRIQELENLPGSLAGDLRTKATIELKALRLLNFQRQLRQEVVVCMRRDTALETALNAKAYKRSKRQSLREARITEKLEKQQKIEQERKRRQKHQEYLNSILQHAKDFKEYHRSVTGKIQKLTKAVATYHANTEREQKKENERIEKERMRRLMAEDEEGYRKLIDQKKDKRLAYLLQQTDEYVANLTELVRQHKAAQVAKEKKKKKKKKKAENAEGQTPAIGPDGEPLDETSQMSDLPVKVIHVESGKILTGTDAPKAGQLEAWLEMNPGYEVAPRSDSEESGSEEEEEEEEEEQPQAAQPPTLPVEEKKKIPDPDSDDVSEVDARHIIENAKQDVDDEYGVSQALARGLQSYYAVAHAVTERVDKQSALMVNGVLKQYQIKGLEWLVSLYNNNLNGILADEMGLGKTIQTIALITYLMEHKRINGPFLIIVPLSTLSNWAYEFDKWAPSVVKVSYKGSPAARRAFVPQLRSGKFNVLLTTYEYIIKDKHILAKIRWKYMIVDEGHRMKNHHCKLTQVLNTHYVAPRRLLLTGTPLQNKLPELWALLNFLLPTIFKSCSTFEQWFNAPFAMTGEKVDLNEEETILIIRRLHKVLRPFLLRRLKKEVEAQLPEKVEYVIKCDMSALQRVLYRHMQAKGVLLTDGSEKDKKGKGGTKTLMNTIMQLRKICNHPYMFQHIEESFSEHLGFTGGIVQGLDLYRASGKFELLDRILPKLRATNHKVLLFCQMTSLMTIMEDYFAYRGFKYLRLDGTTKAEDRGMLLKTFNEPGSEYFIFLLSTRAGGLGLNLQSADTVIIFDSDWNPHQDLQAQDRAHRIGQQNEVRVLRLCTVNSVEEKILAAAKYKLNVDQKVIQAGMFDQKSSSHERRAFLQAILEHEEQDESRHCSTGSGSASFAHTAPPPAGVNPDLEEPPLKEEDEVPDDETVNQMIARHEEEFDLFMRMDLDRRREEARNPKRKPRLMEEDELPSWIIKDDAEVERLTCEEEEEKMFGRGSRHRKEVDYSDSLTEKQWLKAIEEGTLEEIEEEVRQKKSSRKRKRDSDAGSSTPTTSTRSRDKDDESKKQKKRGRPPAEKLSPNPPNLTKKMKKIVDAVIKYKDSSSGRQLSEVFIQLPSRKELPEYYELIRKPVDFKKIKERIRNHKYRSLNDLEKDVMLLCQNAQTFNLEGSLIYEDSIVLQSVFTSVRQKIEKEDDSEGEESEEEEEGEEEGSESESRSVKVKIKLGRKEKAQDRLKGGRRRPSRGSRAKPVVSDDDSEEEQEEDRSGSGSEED
UniProt O00161: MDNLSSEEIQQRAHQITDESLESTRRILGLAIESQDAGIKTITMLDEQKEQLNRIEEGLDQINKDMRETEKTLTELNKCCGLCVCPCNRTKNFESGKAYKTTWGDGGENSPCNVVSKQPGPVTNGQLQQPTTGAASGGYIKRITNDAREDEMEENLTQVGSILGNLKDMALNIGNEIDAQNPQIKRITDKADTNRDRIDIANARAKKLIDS
UniProt Q9H3E2: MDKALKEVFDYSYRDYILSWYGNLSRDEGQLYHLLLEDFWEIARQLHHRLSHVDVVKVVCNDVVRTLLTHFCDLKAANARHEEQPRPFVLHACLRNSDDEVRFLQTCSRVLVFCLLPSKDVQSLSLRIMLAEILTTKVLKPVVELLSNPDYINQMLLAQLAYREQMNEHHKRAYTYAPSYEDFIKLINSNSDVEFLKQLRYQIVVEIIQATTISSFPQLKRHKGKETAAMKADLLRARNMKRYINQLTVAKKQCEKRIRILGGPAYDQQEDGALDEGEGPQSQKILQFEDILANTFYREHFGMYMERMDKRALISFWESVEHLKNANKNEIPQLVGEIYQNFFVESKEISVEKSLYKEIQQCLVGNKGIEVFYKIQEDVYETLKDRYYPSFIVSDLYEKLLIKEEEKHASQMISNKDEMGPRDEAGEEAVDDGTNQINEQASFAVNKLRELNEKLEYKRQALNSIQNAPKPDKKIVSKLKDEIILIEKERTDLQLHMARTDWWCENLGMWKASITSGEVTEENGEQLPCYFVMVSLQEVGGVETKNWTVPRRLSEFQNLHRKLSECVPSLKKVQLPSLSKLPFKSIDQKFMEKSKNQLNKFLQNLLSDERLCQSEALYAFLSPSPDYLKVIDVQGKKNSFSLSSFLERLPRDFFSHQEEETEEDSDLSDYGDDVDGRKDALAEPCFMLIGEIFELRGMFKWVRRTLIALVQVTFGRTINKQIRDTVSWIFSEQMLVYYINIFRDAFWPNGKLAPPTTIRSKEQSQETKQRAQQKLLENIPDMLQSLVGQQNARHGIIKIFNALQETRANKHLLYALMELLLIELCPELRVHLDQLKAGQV
UniProt P18583: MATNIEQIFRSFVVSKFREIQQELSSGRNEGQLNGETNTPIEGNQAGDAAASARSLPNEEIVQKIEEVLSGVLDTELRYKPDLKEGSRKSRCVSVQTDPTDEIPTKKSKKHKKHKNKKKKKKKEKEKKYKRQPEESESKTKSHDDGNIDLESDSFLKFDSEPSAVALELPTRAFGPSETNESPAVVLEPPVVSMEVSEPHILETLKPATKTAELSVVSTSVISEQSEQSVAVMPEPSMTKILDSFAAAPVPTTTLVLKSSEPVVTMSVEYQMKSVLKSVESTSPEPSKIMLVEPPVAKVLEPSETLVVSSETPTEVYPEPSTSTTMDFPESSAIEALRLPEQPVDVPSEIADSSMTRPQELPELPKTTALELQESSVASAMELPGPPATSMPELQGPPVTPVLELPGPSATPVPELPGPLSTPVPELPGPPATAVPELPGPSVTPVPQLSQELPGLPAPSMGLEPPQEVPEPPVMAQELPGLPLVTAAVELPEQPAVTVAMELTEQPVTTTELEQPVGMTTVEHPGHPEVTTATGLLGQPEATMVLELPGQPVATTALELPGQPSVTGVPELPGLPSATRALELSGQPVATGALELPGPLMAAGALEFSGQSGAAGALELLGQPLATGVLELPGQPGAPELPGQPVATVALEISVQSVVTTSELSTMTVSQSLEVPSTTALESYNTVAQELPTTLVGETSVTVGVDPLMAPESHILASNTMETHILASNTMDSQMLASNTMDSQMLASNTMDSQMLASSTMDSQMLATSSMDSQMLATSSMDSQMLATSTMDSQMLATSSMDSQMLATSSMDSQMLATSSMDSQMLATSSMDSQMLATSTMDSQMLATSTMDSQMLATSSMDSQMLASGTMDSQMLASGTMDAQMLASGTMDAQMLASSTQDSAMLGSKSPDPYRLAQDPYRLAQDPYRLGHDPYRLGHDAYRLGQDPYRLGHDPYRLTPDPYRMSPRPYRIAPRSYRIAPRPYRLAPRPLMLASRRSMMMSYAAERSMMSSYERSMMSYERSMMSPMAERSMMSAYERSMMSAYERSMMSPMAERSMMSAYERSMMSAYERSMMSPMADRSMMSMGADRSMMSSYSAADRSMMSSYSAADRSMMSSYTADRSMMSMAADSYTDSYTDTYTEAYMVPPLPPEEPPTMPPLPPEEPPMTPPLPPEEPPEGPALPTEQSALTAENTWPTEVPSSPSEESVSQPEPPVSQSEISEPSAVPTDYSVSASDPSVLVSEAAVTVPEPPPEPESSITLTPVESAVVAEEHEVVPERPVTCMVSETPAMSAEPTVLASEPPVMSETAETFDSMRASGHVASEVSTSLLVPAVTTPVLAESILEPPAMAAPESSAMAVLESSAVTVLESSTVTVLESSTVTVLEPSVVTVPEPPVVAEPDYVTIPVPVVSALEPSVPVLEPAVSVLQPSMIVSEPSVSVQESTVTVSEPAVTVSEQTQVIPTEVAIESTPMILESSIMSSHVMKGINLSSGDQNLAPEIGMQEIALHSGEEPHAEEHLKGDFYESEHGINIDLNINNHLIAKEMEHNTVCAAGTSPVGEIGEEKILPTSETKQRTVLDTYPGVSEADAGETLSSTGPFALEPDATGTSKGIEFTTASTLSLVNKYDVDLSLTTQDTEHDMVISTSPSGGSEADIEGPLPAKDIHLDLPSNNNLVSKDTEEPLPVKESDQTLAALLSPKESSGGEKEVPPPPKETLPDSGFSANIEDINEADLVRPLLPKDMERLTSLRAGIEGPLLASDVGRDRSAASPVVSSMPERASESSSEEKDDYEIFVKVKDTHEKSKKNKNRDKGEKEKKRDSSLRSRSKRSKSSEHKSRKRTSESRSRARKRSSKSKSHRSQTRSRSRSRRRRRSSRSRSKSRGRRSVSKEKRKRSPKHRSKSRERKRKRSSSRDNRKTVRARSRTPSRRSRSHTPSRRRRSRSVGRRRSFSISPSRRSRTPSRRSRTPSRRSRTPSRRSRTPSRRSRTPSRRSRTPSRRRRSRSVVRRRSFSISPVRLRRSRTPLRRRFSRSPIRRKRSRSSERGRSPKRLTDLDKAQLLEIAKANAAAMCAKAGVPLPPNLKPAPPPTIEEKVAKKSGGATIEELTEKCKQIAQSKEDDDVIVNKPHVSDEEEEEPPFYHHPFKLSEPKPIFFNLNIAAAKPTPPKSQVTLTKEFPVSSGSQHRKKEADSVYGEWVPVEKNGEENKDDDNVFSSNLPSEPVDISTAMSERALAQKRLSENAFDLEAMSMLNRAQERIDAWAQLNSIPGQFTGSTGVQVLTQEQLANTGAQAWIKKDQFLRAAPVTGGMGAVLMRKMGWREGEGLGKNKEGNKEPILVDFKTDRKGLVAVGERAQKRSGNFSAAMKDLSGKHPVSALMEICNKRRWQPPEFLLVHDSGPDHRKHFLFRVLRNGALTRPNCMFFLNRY
UniProt Q96E16: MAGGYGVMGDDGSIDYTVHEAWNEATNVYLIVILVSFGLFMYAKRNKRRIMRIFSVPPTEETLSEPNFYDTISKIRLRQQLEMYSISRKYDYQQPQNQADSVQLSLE
UniProt Q8TEQ0: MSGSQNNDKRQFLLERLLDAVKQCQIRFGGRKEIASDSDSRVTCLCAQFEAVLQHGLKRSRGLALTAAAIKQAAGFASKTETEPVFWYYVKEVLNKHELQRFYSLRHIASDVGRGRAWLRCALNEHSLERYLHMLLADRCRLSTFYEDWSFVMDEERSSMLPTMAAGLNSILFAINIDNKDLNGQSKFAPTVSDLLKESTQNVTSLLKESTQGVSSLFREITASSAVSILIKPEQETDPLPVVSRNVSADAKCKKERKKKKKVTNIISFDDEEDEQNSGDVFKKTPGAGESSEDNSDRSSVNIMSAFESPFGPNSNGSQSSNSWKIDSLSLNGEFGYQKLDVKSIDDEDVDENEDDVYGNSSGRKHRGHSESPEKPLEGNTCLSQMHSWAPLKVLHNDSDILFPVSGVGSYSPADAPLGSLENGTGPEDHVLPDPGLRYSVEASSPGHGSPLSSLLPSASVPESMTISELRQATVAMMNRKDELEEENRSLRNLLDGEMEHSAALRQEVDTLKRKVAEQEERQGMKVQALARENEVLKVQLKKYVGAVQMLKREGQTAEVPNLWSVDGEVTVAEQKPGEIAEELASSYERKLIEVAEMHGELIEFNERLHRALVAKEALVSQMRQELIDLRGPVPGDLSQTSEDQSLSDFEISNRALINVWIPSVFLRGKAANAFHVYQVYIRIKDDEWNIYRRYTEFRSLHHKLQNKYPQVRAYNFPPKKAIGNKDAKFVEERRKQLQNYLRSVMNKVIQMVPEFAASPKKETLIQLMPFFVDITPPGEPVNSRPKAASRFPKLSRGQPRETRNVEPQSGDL
UniProt Q8TAD8: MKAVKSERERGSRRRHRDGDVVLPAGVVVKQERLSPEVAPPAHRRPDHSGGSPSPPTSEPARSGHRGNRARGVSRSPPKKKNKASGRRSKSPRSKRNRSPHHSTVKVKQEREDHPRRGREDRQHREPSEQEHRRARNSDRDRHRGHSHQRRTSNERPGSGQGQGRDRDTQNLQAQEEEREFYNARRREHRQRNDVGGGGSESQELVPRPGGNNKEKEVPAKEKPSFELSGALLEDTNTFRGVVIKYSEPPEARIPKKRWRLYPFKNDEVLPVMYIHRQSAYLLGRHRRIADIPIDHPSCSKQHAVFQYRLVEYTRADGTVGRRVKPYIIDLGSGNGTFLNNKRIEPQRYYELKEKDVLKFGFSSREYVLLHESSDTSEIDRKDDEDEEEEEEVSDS
UniProt O75971: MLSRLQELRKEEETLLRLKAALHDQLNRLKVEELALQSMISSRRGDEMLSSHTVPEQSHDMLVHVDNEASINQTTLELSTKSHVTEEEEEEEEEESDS

Columns and labels:
Assay in all cases: log2 fold change, soluble protein after heating vs DMSO (PISA); higher = thermal stabilisation; K562 lysate, 10 uM; active = over 0.2 and 3.5 SD of the protein, either way, in both replicates (recomputed)
ralimetinib = compound: CC(C)(C)Cn1c(N)nc2ccc(-c3[nH]c(C(C)(C)C)nc3-c3ccc(F)cc3)nc21 [ralimetinib]
How it was run: (§1)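 Pellets of K562 cells were dounce-homogenised in PBS pH 7.4 with 1 mM MgCl2, and the crude extract was held at 1 mg/mL protein for a 30 min treatment with 10 μM compound. Aliquots were heated for 3 min over 48°C-58°C and pooled before NP-40 was added to 0.5% at 4°C. The supernatant from 21,000xg for 90 min was quantified by TMTpro 16plex LC-MS/MS with channel sums equalised. Values are reported from duplicates as log-two fold change in thermal stability relative to solvent controls.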

[1] = compound: CC(C)(O)CC(=O)NCCn1ccc2ncnc(Nc3ccc(Oc4cccc(C(F)(F)F)c4)c(Cl)c3)c21
How it was run: as §1

[2] = compound: CC1=C(C(CC(=O)N1)C2=CC=C(C=C2)C(F)(F)F)C(=O)NC3=C(C=C4C(=C3)C=NN4)F
How it was run: as §1

[3] = compound: CC1=C(C=C(C=C1)NC(=O)C2=CC(=CC=C2)N(C)C)NC(=O)C3=CC=C(C=C3)O
How it was run: as §1

[4] = compound: CCn1c(C(=O)N(C2CC2)C2CC2)cc2c3c(ncn3C)c(Nc3cc(C)n(C)n3)nc21
How it was run: as §1

[5] = compound: CCn1cc(-c2ccnc3[nH]c(-c4cccc(CN(C)C)c4)cc23)c(-c2ccc(NC(=O)N(C)C)cc2)n1
How it was run: as §1

[6] = compound: CN1CCC(CNc2ccc3ncc(-c4cccc(OC(F)(F)F)c4)n3n2)CC1
How it was run: as §1

[7] = compound: CC(=O)c1cnc2ccc(-c3cc(Cl)c(O)c(Cl)c3)nc2c1N[C@H]1CC[C@H](CN(C)C)CC1
How it was run: as §1

[8] = compound: CC(C)C1=C2N=C(C=C(N2N=C1)NCC3=CC=CC=C3)NCCCCCCN
How it was run: as §1

[9] = compound: CC1=C(C2=C(C=C1)C(=O)C3=CC=CC=C3N2CCCN)C
How it was run: as §1

[10] = compound: CC1=C(C=C(C=C1)NC(=O)C2=CC(=CC=C2)C(C)(C)C#N)NC3=CC4=C(C=C3)N=CN(C4=O)C
How it was run: as §1

[11] = compound: CC1=CC=C(C=C1)SC2=C3C=C(SC3=CN=C2)C(=O)N
How it was run: as §1

[12] = compound: CCCS(=O)(=O)Nc1ccc(F)c(C(=O)c2c[nH]c3ncc(Cl)cc23)c1F
How it was run: as §1

[13] = compound: CC[C@@H]1C(=O)N(C)c2cnc(Nc3ccc(C(=O)NC4CCN(C)CC4)cc3OC)nc2N1C1CCCC1
How it was run: as §1

volasertib = compound: CC[C@@H]1C(=O)N(C)c2cnc(Nc3ccc(C(=O)N[C@H]4CC[C@H](N5CCN(CC6CC6)CC5)CC4)cc3OC)nc2N1C(C)C [volasertib]
How it was run: as §1

saracatinib = compound: CN1CCN(CCOc2cc(OC3CCOCC3)c3c(Nc4c(Cl)ccc5c4OCO5)ncnc3c2)CC1 [saracatinib]
How it was run: as §1

sotrastaurin = compound: CN1CCN(c2nc(C3=C(c4c[nH]c5ccccc45)C(=O)NC3=O)c3ccccc3n2)CC1 [sotrastaurin]
How it was run: as §1

vemurafenib = compound: CCCS(=O)(=O)Nc1ccc(F)c(C(=O)c2c[nH]c3ncc(-c4ccc(Cl)cc4)cc23)c1F [vemurafenib]
How it was run: as §1

Measured: log2 fold change

SMIM26, A0A096LP01
inactive: ralimetinib 0.163 | [1] -0.03 | [2] 0.003 | [3] -0.125 | [4] 0.033 | [5] 0.294 | [6] -0.424

SMARCA4 isoform 4 (UniProt P51532)
inactive: [7] 0.044 | ralimetinib 0.051 | [1] -0.022 | [8] -0.337 | [2] 0.093 | [9] -0.018 | [10] -0.107 | [3] 0.192 | [11] 0.041 | [12] -0.047 | [13] 0.049 | volasertib 0.043 | [4] -0.192 | [5] -0.086 | [6] 0.057 | saracatinib 0.119 | sotrastaurin 0.325

SNAP23 isoform 2 (UniProt O00161)
inactive: [7] -0.045 | ralimetinib -0.071 | [1] 0.095 | [8] -0.029 | [2] 0.306 | [3] 0.027 | [11] 0.028 | vemurafenib 0.172 | [12] 0.09 | [13] 0.052 | volasertib 0.003 | [4] -0.029 | [5] 0.123 | [6] -0.061

SNRPD2 (UniProt K7EJB5)
inactive: [7] -0.004 | ralimetinib 0.142 | [1] -0.075 | [8] 0.014 | [2] 0.052 | [9] -0.022 | [10] -0.011 | [3] 0.069 | [11] -0.01 | vemurafenib 0.061 | [12] -0.029 | [13] -0.085 | volasertib 0.026 | [4] 0.112 | saracatinib -0.049 | sotrastaurin 0.112

SMPD2 (UniProt O60906)
inactive: [7] 0.01 | ralimetinib -0.03 | [1] 0.067 | [8] 0.388 | [9] 0.077 | [3] -0.113 | [11] 0.058 | [12] 0.179 | [13] 0.051 | volasertib 0.032 | [4] -0.017 | [5] -0.003 | [6] -0.104 | saracatinib 0.018

SNX25 (UniProt Q9H3E2)
inactive: ralimetinib -0.118 | [1] 0.042 | [8] -0.004 | [9] -0.011 | [10] -0.155 | [3] 0.004 | [13] 0.111 | [4] 0.011 | saracatinib -0.013 | sotrastaurin 0.116

2 records drawn at random from the list so far:
SMPD2 (UniProt O60906)
inactive: [7] 0.01 | ralimetinib -0.03 | [1] 0.067 | [8] 0.388 | [9] 0.077 | [3] -0.113 | [11] 0.058 | [12] 0.179 | [13] 0.051 | volasertib 0.032 | [4] -0.017 | [5] -0.003 | [6] -0.104 | saracatinib 0.018

SNRPD2 (UniProt K7EJB5)
inactive: [7] -0.004 | ralimetinib 0.142 | [1] -0.075 | [8] 0.014 | [2] 0.052 | [9] -0.022 | [10] -0.011 | [3] 0.069 | [11] -0.01 | vemurafenib 0.061 | [12] -0.029 | [13] -0.085 | volasertib 0.026 | [4] 0.112 | saracatinib -0.049 | sotrastaurin 0.112

(list continues)

SMOX isoform 6 (UniProt Q9NWM0)
inactive: [7] 0.128 | [8] 0.055 | [9] -0.045 | [11] -0.2 | [12] 0.204 | volasertib -0.089 | saracatinib 0.235

SMIM29 (UniProt Q86T20)
inactive: [7] -0.084 | [11] -0.038 | [12] 0.033 | volasertib 0.063

SMARCD3 (UniProt Q6STE5)
inactive: [8] -0.066 | [9] -0.124 | saracatinib -0.039

SMIM13 (UniProt P0DJ93)
inactive: [8] 0.081 | [10] 0.037 | sotrastaurin 0.009

SON isoform 6 (UniProt P18583)
inactive: ralimetinib -0.038 | [1] 0.03 | [2] -0.147 | [3] 0.059 | [4] 0.111

SNX18 isoform 2 (UniProt Q96RF0)
inactive: [7] 0.061 | [8] 0.015 | [2] 0.016 | [10] -0.197 | [11] 0.154 | vemurafenib -0.125 | [12] 0.047 | [13] -0.105 | volasertib -0.24 | [5] 0.044 | [6] -0.13 | sotrastaurin -0.2

SMIM19 (UniProt Q96E16)
inactive: ralimetinib -0.042 | [1] -0.332 | [3] -0.285 | [4] 0.064

SMIM15 (UniProt Q7Z3B0)
inactive: [7] -0.065 | ralimetinib 0.129 | [1] -0.148 | [8] 0.029 | [2] -0.011 | [9] -0.047 | [10] -0.011 | [3] -0.001 | [11] -0.005 | vemurafenib 0.201 | [12] 0.018 | [13] 0.097 | volasertib 0.033 | [4] -0.076 | [5] 0.011 | [6] 0.025 | saracatinib 0.122 | sotrastaurin 0.013

SNRPA1 (UniProt H0YMA0)
inactive: [7] -0.068 | [11] 0.08 | [12] 0 | volasertib 0.069

SMIM10L1 (UniProt P0DMW3)
inactive: [5] 0.097 | [6] -0.098

SPANXB1 (UniProt Q9NS25)
inactive: [5] -0.059 | [6] -0.043

SMR3B (UniProt P02814)
inactive: ralimetinib -0.012 | [1] 0.291 | [10] 0.056 | [3] -0.075 | [13] -0.07 | [4] -0.064 | [5] 0.032 | [6] 0.094 | sotrastaurin -0.244

SNX29 (UniProt Q8TEQ0)
inactive: ralimetinib 0.155 | [1] 0.031 | [8] 0.097 | [2] -0.02 | [10] 0.074 | [3] -0.191 | [13] 0.023 | [4] 0.213 | [5] 0.224 | [6] -0.328 | sotrastaurin -0.022

SNIP1 (UniProt Q8TAD8)
inactive: [2] -0.062

SMPDL3B (UniProt Q92485)
inactive: [7] -0.013 | ralimetinib 0.126 | [1] -0.016 | [9] -0.076 | [10] 0.022 | [3] 0.087 | [11] 0.069 | vemurafenib 0.036 | [12] -0.137 | [13] -0.073 | volasertib -0.062 | [4] 0.013 | [5] 0.077 | [6] 0.034 | saracatinib -0.009 | sotrastaurin 0.004

SOSTDC1 isoform 2 (UniProt Q6X4U4)
inactive: [9] -0.03 | saracatinib -0.029

SNRNP35 isoform 2 (UniProt Q16560)
inactive: [2] 0.055 | [9] -0.103 | [5] -0.288 | [6] 0.052 | saracatinib 0.132

SMPDL3A (UniProt Q92484)
inactive: [7] 0.1 | [11] 0.114 | vemurafenib 0.126 | [12] -0.066 | [13] 0.028 | volasertib -0.13

SNAPC5 (UniProt O75971)
inactive: [2] 0.064 | vemurafenib -0.063 | [5] -0.189 | [6] 0.155
